These are yes or no findings as the source states them, for the method shown.
Tests used:
Assay in all cases: ELISA, 200 ng/well coated, anti-His HRP
[1] = molecular target: HtrA
[2] = molecular target: HpaA
[3] = molecular target: IL-18
[4] = molecular target: HER2
[5] = molecular target: IL-12
[6] = molecular target: IL-15
[7] = molecular target: UreB
[8] = molecular target: PD1
[9] = molecular target: BCMA

Measured: binding

B1: PDL1-14 (VHH)
VHH: QVQLQESGGGLVQPGGSLRLSCAASGIISDINMVAWYRQAPGKQRELVAKIFRGGSTYYTDFVKGRFTISRENAKNTVYLQMNSLKPDDTAVYYCNARIQIRADRDYSDYWGQGTQVTVSS
no binding (tested: 0.2 µg): all assays above

B2: PDL1-1 (VHH)
VHH: QVQLQESGGGLVQPGGSLTLSCAASGFTVSNSAVSWARQAPGKGLEWVSLIDSNRNTVYAQSVRGRFTISRDNVKNTVYLQMNSLKPEDTAVYYCAKGIWGSTLTGQGTQVTVSS
no binding (tested: 0.2 µg): all assays above

B3: PDL1-3 (VHH)
VHH: QVQLQESGGGLVQPGGSLRLSCAGSGSIFRITPVAWYRQAPEKQRELVAVITDNGSTDYGDFVKGRFTISRDNAKNTVYLQMNSLKPEDTAVYYCNSRARPVRWTWGQGTQVTVSS
no binding (tested: 0.2 µg): all assays above

Reference: patent EP4703382A1
